Values from PubChem BioAssay AID1508588 (Peter MacCallum Cancer Centre, 2020)

Assay: 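Knock-downs boosting vemurafenib effects on melanoma cell growth or lactate release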 (primary screen)
System: human WM266.4 melanoma cells (BRAF V600 mutant)
Reagents: siRNA pool against human genes, 40 nM
Time to read-out: 96 h from transfection to read-out
Conditions: vemurafenib 300 nM (about IC25), added 48 h after transfection, for 48 h; comparison arm got DMSO vehicle only
Measurement: 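Cell gain (DAPI nuclei at end minus before drug, mean of two replicates) and medium lactate by absorbance per cell, both as ratio to non-targeting siRNA, also grouped into fold-change classes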
Scale: cell gain with vemurafenib: higher = more cell gain than with non-targeting siRNA; lactate per cell with vemurafenib: higher = more lactate made per cell
Active means: 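a knock-down counts as enhancing when its fold-change classes with vehicle and with vemurafenib, taken together, show a stronger drug effect on cell gain or lactate per cell; exact class pairs not stated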
Calls: active = enhances vemurafenib effect; inactive = no enhancement seen
The whole screen tested about 18,000 reagents; shown is a part drawn at random. 790 of all reagents (4.4%) count as active. 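Calls rest on a combination of fold-change classes in drug and vehicle arms, not all shown here.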

What did the screen give for BICD1 (BICD cargo adaptor 1)?
cell gain with vemurafenib: 0.96; lactate per cell with vemurafenib: 1.05; Outcome: inactive

For TBCC (tubulin folding cofactor C), how do the results read?
cell gain with vemurafenib: 0.96; lactate per cell with vemurafenib: 0.77; Outcome: inactive

For MEF2A (myocyte enhancer factor 2A), what was measured?
cell gain with vemurafenib: 1.04; lactate per cell with vemurafenib: 0.61; Outcome: inactive

What is on record for PALS1 (protein associated with LIN7 1, MAGUK p55 family member)?
cell gain with vemurafenib: 0.89; lactate per cell with vemurafenib: 0.52; Outcome: inactive

How did the screen score WDR64 (WD repeat domain 64)?
cell gain with vemurafenib: 0.8; lactate per cell with vemurafenib: 0.96; Outcome: inactive

With GNAQ (G protein subunit alpha q), how do the results read?
cell gain with vemurafenib: 0.27; lactate per cell with vemurafenib: 0.34; Outcome: inactive

What is on record for CD69 (CD69 molecule)?
cell gain with vemurafenib: 0.37; lactate per cell with vemurafenib: 1.81; Outcome: inactive

Which result is listed for RCCD1 (RCC1 domain containing 1)?
cell gain with vemurafenib: 1.13; lactate per cell with vemurafenib: 0.48; Outcome: inactive

With EP300 (EP300 lysine acetyltransferase), how do the results read?
cell gain with vemurafenib: 0.2; lactate per cell with vemurafenib: 1.96; Outcome: inactive

With OR1N2 (olfactory receptor family 1 subfamily N member 2), what does the deposit list?
cell gain with vemurafenib: 0.44; lactate per cell with vemurafenib: 0.14; Outcome: inactive

Which result is listed for TULP3 (TUB like protein 3)?
cell gain with vemurafenib: 1; lactate per cell with vemurafenib: 0.78; Outcome: inactive

How did the screen score CCR7 (C-C motif chemokine receptor 7)?
cell gain with vemurafenib: 1.09; lactate per cell with vemurafenib: 0.52; Outcome: inactive

With POLR2D (RNA polymerase II subunit D), what was measured?
cell gain with vemurafenib: 0.23; lactate per cell with vemurafenib: 1.03; Outcome: inactive

Which result is listed for TAL2 (TAL bHLH transcription factor 2)?
cell gain with vemurafenib: 0.41; lactate per cell with vemurafenib: 1.64; Outcome: inactive

With SMAD6 (SMAD family member 6), how do the results read?
cell gain with vemurafenib: 0.17; lactate per cell with vemurafenib: 2.29; Outcome: inactive

What is on record for ARL4D (ARF like GTPase 4D)?
cell gain with vemurafenib: 0.38; lactate per cell with vemurafenib: 1.83; Outcome: inactive

With UNC93B1 (unc-93B1 regulator of TLR signaling), what was measured?
cell gain with vemurafenib: 0.58; lactate per cell with vemurafenib: 0.74; Outcome: inactive

What did the screen give for RNF169 (ring finger protein 169)?
cell gain with vemurafenib: 0.64; lactate per cell with vemurafenib: 1.35; Outcome: inactive

What is on record for LLPH (LLP homolog, long-term synaptic facilitation factor)?
cell gain with vemurafenib: 0.9; lactate per cell with vemurafenib: 1.2; Outcome: inactive

What is on record for GNAS (GNAS complex locus)?
cell gain with vemurafenib: 0.38; lactate per cell with vemurafenib: 1.94; Outcome: inactive

What did the screen give for DNAJB2 (DnaJ heat shock protein family (Hsp40) member B2)?
cell gain with vemurafenib: 0.46; lactate per cell with vemurafenib: 0.76; Outcome: inactive

With GPR78 (G protein-coupled receptor 78), what does the deposit list?
cell gain with vemurafenib: 0.94; lactate per cell with vemurafenib: 0.72; Outcome: inactive

What did the screen give for HS3ST3A1 (heparan sulfate-glucosamine 3-sulfotransferase 3A1)?
cell gain with vemurafenib: 0.66; lactate per cell with vemurafenib: 0.68; Outcome: inactive

How did the screen score HES2 (hes family bHLH transcription factor 2)?
cell gain with vemurafenib: 0.7; lactate per cell with vemurafenib: 1.93; Outcome: inactive

With FAM199X (family with sequence similarity 199, X-linked), how do the results read?
cell gain with vemurafenib: 0.72; lactate per cell with vemurafenib: 0.5; Outcome: inactive

With ZNF137P (zinc finger protein 137, pseudogene), what does the deposit list?
cell gain with vemurafenib: 0.9; lactate per cell with vemurafenib: 0.82; Outcome: inactive

With GCN1 (GCN1 activator of EIF2AK4), what was measured?
cell gain with vemurafenib: 0.63; lactate per cell with vemurafenib: 1.12; Outcome: inactive

4 entries from above, sorted by “lactate per cell with vemurafenib”, descending:
WDR64 (WD repeat domain 64): cell gain with vemurafenib = 0.8; lactate per cell with vemurafenib = 0.96; Outcome = inactive
MEF2A (myocyte enhancer factor 2A): cell gain with vemurafenib = 1.04; lactate per cell with vemurafenib = 0.61; Outcome = inactive
PALS1 (protein associated with LIN7 1, MAGUK p55 family member): cell gain with vemurafenib = 0.89; lactate per cell with vemurafenib = 0.52; Outcome = inactive
GNAQ (G protein subunit alpha q): cell gain with vemurafenib = 0.27; lactate per cell with vemurafenib = 0.34; Outcome = inactive
